Experimental findings from patent publication US20160090556A1, “PRODUCTS COMPRISING MALODOR REDUCTION MATERIALS” (The Procter & Gamble Company, priority 2014, published 2016) are described below.

The nature of data set [1]: Melamine formaldehyde PMC Headspace Response Ratio. The settings on record: for Comment Code: Melamine formaldehyde PMC Headspace Response Ratio: code letter I.
A short description of data set [2]: Melamine formaldehyde PMC leakage. The settings on record: for Comment Code: Melamine formaldehyde PMC leakage: code letter J.
Where [3] appears, read: class code letter within Comment Code.

Like-named read-outs stand apart in the source and are kept apart here. Some compounds share one wording; it may come from a single statement.

On to `C=C(C=O)C(C)CCC=C(C)C` (stereo not shown) [Material 819], for which the “Comment Code: Melamine formaldehyde PMC Headspace Response Ratio” value in data set [1] is on record as “I (Melamine formaldehyde PMC Headspace Response Ratio greater than or equal to 10)”. In data set [2], the “Comment Code: Melamine formaldehyde PMC leakage” value was “J (Melamine formaldehyde PMC leakage less than or equal to 5%)”.
Turning to `Cc1coc2c1CCC(C)C2` (stereo not shown) [Material 802], the “Melamine formaldehyde PMC Headspace Response Ratio (Comment Code I)” value in data set [1] is “I (Melamine formaldehyde PMC Headspace Response Ratio greater than or equal to 10)”. The “Melamine formaldehyde PMC leakage (Comment Code J)” value in data set [2] is listed as “J (Melamine formaldehyde PMC leakage less than or equal to 5%)”.
For the compound `C=CC(C)=CCCC(C)(C)O` [Material 42], the “Melamine formaldehyde PMC Headspace Response Ratio (Comment Code I)” value in data set [1] (setting [3]) is “I (Melamine formaldehyde PMC Headspace Response Ratio greater than or equal to 10)”. The “Melamine formaldehyde PMC leakage (Comment Code J)” value in data set [2] (setting [3]) was “J (Melamine formaldehyde PMC leakage less than or equal to 5%)”.
`C=C(C)C1CCC(C)(O)C1C` (stereo not shown) [Material 981]: the “Comment Code: Melamine formaldehyde PMC Headspace Response Ratio” value in data set [1] is “I (Melamine formaldehyde PMC Headspace Response Ratio greater than or equal to 10)”. The “Comment Code: Melamine formaldehyde PMC leakage” value in data set [2] is recorded as “J (Melamine formaldehyde PMC leakage less than or equal to 5%)”.
Consider `CC1=CC(C)C2(CCCC(C)(C)C2=O)CC1` (stereo not shown) [Material 1022], for which, in data set [1], the “Melamine formaldehyde PMC Headspace Response Ratio (Comment Code I)” value is reported as “I (Melamine formaldehyde PMC Headspace Response Ratio greater than or equal to 10)” and the “Comment Code: Melamine formaldehyde PMC Headspace Response Ratio” value is on record as “I (Melamine formaldehyde PMC Headspace Response Ratio greater than or equal to 10)”. Moreover, in data set [2], the “Melamine formaldehyde PMC leakage (Comment Code J)” value is listed as “J (Melamine formaldehyde PMC leakage less than or equal to 5%)” and the “Comment Code: Melamine formaldehyde PMC leakage” value is “J (Melamine formaldehyde PMC leakage less than or equal to 5%)”.
As to `CCCCC1C=C(C)CC(C)O1` (stereo not shown) [Material 290], the “Melamine formaldehyde PMC Headspace Response Ratio (Comment Code I)” value in data set [1] (setting [3]) is reported as “I (Melamine formaldehyde PMC Headspace Response Ratio greater than or equal to 10)”. Also, the “Melamine formaldehyde PMC leakage (Comment Code J)” value in data set [2] (setting [3]) is given as “J (Melamine formaldehyde PMC leakage less than or equal to 5%)”.
`CCCCC(CC)C1OCCO1` (stereo not shown) [Material 1043]: the “Melamine formaldehyde PMC Headspace Response Ratio (Comment Code I)” value in data set [1] is “I (Melamine formaldehyde PMC Headspace Response Ratio greater than or equal to 10)”. For the same compound, the “Melamine formaldehyde PMC leakage (Comment Code J)” value in data set [2] is listed as “J (Melamine formaldehyde PMC leakage less than or equal to 5%)”.
Consider `CCC1=CCCC(C)(C)C12C=CC(C)O2` (stereo not shown) [Material 413], for which, in data set [1] (setting [3]), the “Melamine formaldehyde PMC Headspace Response Ratio (Comment Code I)” value is recorded as “I (Melamine formaldehyde PMC Headspace Response Ratio greater than or equal to 10)”. Also, in data set [2] (setting [3]), the “Melamine formaldehyde PMC leakage (Comment Code J)” value is on record as “J (Melamine formaldehyde PMC leakage less than or equal to 5%)”.
For the compound `CCC(C)(O)CCC=C(C)C` (stereo not shown) [Material 877], the “Melamine formaldehyde PMC Headspace Response Ratio (Comment Code I)” value in data set [1] is listed as “I (Melamine formaldehyde PMC Headspace Response Ratio greater than or equal to 10)”. In addition, the “Melamine formaldehyde PMC leakage (Comment Code J)” value in data set [2] is on record as “J (Melamine formaldehyde PMC leakage less than or equal to 5%)”.
Regarding `CC12CCCC(C)(CC1)C2=NO` [Material 921], the “Comment Code: Melamine formaldehyde PMC Headspace Response Ratio” value in data set [1] was “I (Melamine formaldehyde PMC Headspace Response Ratio greater than or equal to 10)”. Moreover, in data set [2], the “Comment Code: Melamine formaldehyde PMC leakage” value is on record as “J (Melamine formaldehyde PMC leakage less than or equal to 5%)”.
As to `CC(C)=CCCC(C)CCO` (stereo not shown) [Material 517], the “Comment Code: Melamine formaldehyde PMC Headspace Response Ratio” value in data set [1] is given as “I (Melamine formaldehyde PMC Headspace Response Ratio greater than or equal to 10)”. Moreover, the “Comment Code: Melamine formaldehyde PMC leakage” value in data set [2] is “J (Melamine formaldehyde PMC leakage less than or equal to 5%)”.
Consider `CC(=O)C=CC12OC1(C)CCCC2(C)C` (stereo not shown) [Material 636], for which the “Melamine formaldehyde PMC Headspace Response Ratio (Comment Code I)” value in data set [1] is “I (Melamine formaldehyde PMC Headspace Response Ratio greater than or equal to 10)”. Besides, the “Melamine formaldehyde PMC leakage (Comment Code J)” value in data set [2] was “J (Melamine formaldehyde PMC leakage less than or equal to 5%)”.
The corresponding values for `CC1=CCCC(C)(C)C12CCC(C)O2` (stereo not shown) [Material 1057] are “I (Melamine formaldehyde PMC Headspace Response Ratio greater than or equal to 10)” and “J (Melamine formaldehyde PMC leakage less than or equal to 5%)”.
As to `C=C(C)C1CC=C(C)C(OC(C)=O)C1` (stereo not shown) [Material 577], in data set [1], the “Melamine formaldehyde PMC Headspace Response Ratio (Comment Code I)” value was “I (Melamine formaldehyde PMC Headspace Response Ratio greater than or equal to 10)”. Also, the “Melamine formaldehyde PMC leakage (Comment Code J)” value in data set [2] is reported as “J (Melamine formaldehyde PMC leakage less than or equal to 5%)”.
As to `CC(=O)CCC1C(C)=CCCC1(C)C` (stereo not shown) [Material 448], the “Comment Code: Melamine formaldehyde PMC Headspace Response Ratio” value in data set [1] was “I (Melamine formaldehyde PMC Headspace Response Ratio greater than or equal to 10)”. Besides, the “Comment Code: Melamine formaldehyde PMC leakage” value in data set [2] is on record as “J (Melamine formaldehyde PMC leakage less than or equal to 5%)”.
With `CC1(C)C2CCC3(CO3)C1C2` (stereo not shown) [Material 617], the “Comment Code: Melamine formaldehyde PMC Headspace Response Ratio” value in data set [1] is listed as “I (Melamine formaldehyde PMC Headspace Response Ratio greater than or equal to 10)”. The “Comment Code: Melamine formaldehyde PMC leakage” value in data set [2] is recorded as “J (Melamine formaldehyde PMC leakage less than or equal to 5%)”.
`C=C(OCC)C1C(C)(C)CC(=O)CC1(C)C` [Material 182]: the “Melamine formaldehyde PMC Headspace Response Ratio (Comment Code I)” value in data set [1] (setting [3]) is reported as “I (Melamine formaldehyde PMC Headspace Response Ratio greater than or equal to 10)”. The “Melamine formaldehyde PMC leakage (Comment Code J)” value in data set [2] (setting [3]) was “J (Melamine formaldehyde PMC leakage less than or equal to 5%)”.
With `CC(C)=CCCC(C)CC=O` (stereo not shown) [Material 518], the “Comment Code: Melamine formaldehyde PMC Headspace Response Ratio” value in data set [1] is “I (Melamine formaldehyde PMC Headspace Response Ratio greater than or equal to 10)”. Further, in data set [2], the “Comment Code: Melamine formaldehyde PMC leakage” value is reported as “J (Melamine formaldehyde PMC leakage less than or equal to 5%)”.
Take `C=C(C)CC(C)OC(=O)C(C)C` (stereo not shown) [Material 201]: in data set [1], the “Comment Code: Melamine formaldehyde PMC Headspace Response Ratio” value is “I (Melamine formaldehyde PMC Headspace Response Ratio greater than or equal to 10)”. In data set [2], the “Comment Code: Melamine formaldehyde PMC leakage” value is “J (Melamine formaldehyde PMC leakage less than or equal to 5%)”.
Take `C=C1C2CCC(C2)C1(C)C` (stereo not shown) [Material 589]: the “Melamine formaldehyde PMC Headspace Response Ratio (Comment Code I)” value in data set [1] is reported as “I (Melamine formaldehyde PMC Headspace Response Ratio greater than or equal to 10)”. For the same compound, the “Melamine formaldehyde PMC leakage (Comment Code J)” value in data set [2] is “J (Melamine formaldehyde PMC leakage less than or equal to 5%)”.
As for `CC(O)CCC1C(C)CCCC1(C)C` (stereo not shown) [Material 1052], the “Comment Code: Melamine formaldehyde PMC Headspace Response Ratio” value in data set [1] was “I (Melamine formaldehyde PMC Headspace Response Ratio greater than or equal to 10)”. Moreover, the “Comment Code: Melamine formaldehyde PMC leakage” value in data set [2] is on record as “J (Melamine formaldehyde PMC leakage less than or equal to 5%)”.
For the compound `C=C(C)C1CC=C(C=O)CC1` (stereo not shown) [Material 946], in data set [1], the “Melamine formaldehyde PMC Headspace Response Ratio (Comment Code I)” value was “I (Melamine formaldehyde PMC Headspace Response Ratio greater than or equal to 10)”. Besides, in data set [2], the “Melamine formaldehyde PMC leakage (Comment Code J)” value was “J (Melamine formaldehyde PMC leakage less than or equal to 5%)”.
Take `COC(=O)C1(C)CCC(C)CC1` (stereo not shown) [Material 477]: in data set [1], the “Comment Code: Melamine formaldehyde PMC Headspace Response Ratio” value is reported as “I (Melamine formaldehyde PMC Headspace Response Ratio greater than or equal to 10)”. Moreover, in data set [2], the “Comment Code: Melamine formaldehyde PMC leakage” value was “J (Melamine formaldehyde PMC leakage less than or equal to 5%)”.
In the case of `CC(=O)OC1CC2CCC1(C)C2(C)C` (stereo not shown) [Material 604], the “Melamine formaldehyde PMC Headspace Response Ratio (Comment Code I)” value in data set [1] is “I (Melamine formaldehyde PMC Headspace Response Ratio greater than or equal to 10)”. Besides, the “Melamine formaldehyde PMC leakage (Comment Code J)” value in data set [2] is listed as “J (Melamine formaldehyde PMC leakage less than or equal to 5%)”.
As for `CCC(C)(C)C1CCC(=O)CC1` [Material 21], the “Melamine formaldehyde PMC Headspace Response Ratio (Comment Code I)” value in data set [1] (setting [3]) is reported as “I (Melamine formaldehyde PMC Headspace Response Ratio greater than or equal to 10)”. In data set [2] (setting [3]), the “Melamine formaldehyde PMC leakage (Comment Code J)” value was “J (Melamine formaldehyde PMC leakage less than or equal to 5%)”.
The corresponding values for `COC(C)(C)CCCC(C)CC=O` (stereo not shown) [Material 126] are “I (Melamine formaldehyde PMC Headspace Response Ratio greater than or equal to 10)” and “J (Melamine formaldehyde PMC leakage less than or equal to 5%)”.
Regarding `COC(=O)C1C(C)C=CCC1(C)C` (stereo not shown) [Material 364], the “Melamine formaldehyde PMC Headspace Response Ratio (Comment Code I)” value in data set [1] (setting [3]) is reported as “I (Melamine formaldehyde PMC Headspace Response Ratio greater than or equal to 10)”. Besides, the “Melamine formaldehyde PMC leakage (Comment Code J)” value in data set [2] (setting [3]) is listed as “J (Melamine formaldehyde PMC leakage less than or equal to 5%)”.
Regarding `C=C1CCC2(C(C)C)CC12` (stereo not shown) [Material 1018], the “Comment Code: Melamine formaldehyde PMC Headspace Response Ratio” value in data set [1] was “I (Melamine formaldehyde PMC Headspace Response Ratio greater than or equal to 10)”. In data set [2], the “Comment Code: Melamine formaldehyde PMC leakage” value is “J (Melamine formaldehyde PMC leakage less than or equal to 5%)”.
As for `CC(OC=O)C1CCCC(C)(C)C1` (stereo not shown) [Material 662], the “Comment Code: Melamine formaldehyde PMC Headspace Response Ratio” value in data set [1] is listed as “I (Melamine formaldehyde PMC Headspace Response Ratio greater than or equal to 10)”. For the same compound, in data set [2], the “Comment Code: Melamine formaldehyde PMC leakage” value is “J (Melamine formaldehyde PMC leakage less than or equal to 5%)”.
`CCC(C)(C)C1CCC(O)CC1` (stereo not shown) [Material 995]: the “Comment Code: Melamine formaldehyde PMC Headspace Response Ratio” value in data set [1] is “I (Melamine formaldehyde PMC Headspace Response Ratio greater than or equal to 10)”. For the same compound, the “Comment Code: Melamine formaldehyde PMC leakage” value in data set [2] was “J (Melamine formaldehyde PMC leakage less than or equal to 5%)”.
Regarding `CC1=CC(C)C2C(CCC(C)(C)C2O)C1` (stereo not shown) [Material 39], in data set [1] (setting [3]), the “Melamine formaldehyde PMC Headspace Response Ratio (Comment Code I)” value was “I (Melamine formaldehyde PMC Headspace Response Ratio greater than or equal to 10)”. For the same compound, in data set [1], the “Comment Code: Melamine formaldehyde PMC Headspace Response Ratio” value is “I (Melamine formaldehyde PMC Headspace Response Ratio greater than or equal to 10)”. The “Melamine formaldehyde PMC leakage (Comment Code J)” value in data set [2] (setting [3]) is on record as “J (Melamine formaldehyde PMC leakage less than or equal to 5%)”. For the same compound, the “Comment Code: Melamine formaldehyde PMC leakage” value in data set [2] is listed as “J (Melamine formaldehyde PMC leakage less than or equal to 5%)”.
As for `C=C(C)C1CCC(C)C(O)C1` (stereo not shown) [Material 445], in data set [1] (setting [3]), the “Melamine formaldehyde PMC Headspace Response Ratio (Comment Code I)” value is “I (Melamine formaldehyde PMC Headspace Response Ratio greater than or equal to 10)”. Besides, the “Melamine formaldehyde PMC leakage (Comment Code J)” value in data set [2] (setting [3]) was “J (Melamine formaldehyde PMC leakage less than or equal to 5%)”.
Regarding `CC(C)(O)CCC1CCCCC1` [Material 496], the “Comment Code: Melamine formaldehyde PMC Headspace Response Ratio” value in data set [1] is listed as “I (Melamine formaldehyde PMC Headspace Response Ratio greater than or equal to 10)”. In data set [2], the “Comment Code: Melamine formaldehyde PMC leakage” value is given as “J (Melamine formaldehyde PMC leakage less than or equal to 5%)”.
